PubChem BioAssay AID504786 | Drosophila RNAi Screening Center, 2011
Purpose: 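Positive regulators of HIF-driven reporter output in Drosophila cells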 (primary screen). Cells: Drosophila S2 cells with a stable HIF luciferase reporter. Reagent: long dsRNA against Drosophila genes, about 0.2 µg dsRNA per well of a 384-well plate. Time to read-out: three days of knock-down, then 20 h of DFO before reading. Conditions: desferrioxamine (DFO) at 100 µM, an iron chelator that mimics hypoxia, for 20 h. Detection: 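HIF reporter luminescence in cells given 100 µM DFO for 20 h, using the mouse ldh-a hypoxia-response element, scored as per-plate z-scores; higher means greater loss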. Direction: z-score: higher = stronger loss of HIF reporter signal.
The screen tested about 21,000 reagents; shown is an unselected part of those with a known target gene and a result. 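Primary screen; positive scores mean lost reporter signal, so the sign may be inverted from the usual convention.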 Reagents against one gene are numbered here. A plus sign joins genes that one reagent is predicted to hit.

With knock-down of spz3 #1, the record shows z-score, replicate 1 = -0.4; z-score, replicate 2 = -0.5. spz3 #2 scored z-score, replicate 1 = -0.4; z-score, replicate 2 = -0.4. Knock-down of lama gave: z-score, replicate 1 = -0.3; z-score, replicate 2 = -0.3. CG1239 gave z-score, replicate 1 = -0.3; z-score, replicate 2 = -0.3. Against CG32447 #1, the values are z-score, replicate 1 = -0.3; z-score, replicate 2 = -0.5. Depletion of CG32447 #2 resulted in: z-score, replicate 1 = -0.3; z-score, replicate 2 = -0.2.

After knock-down of CG14416, the screen gave z-score, replicate 1 = -0.2; z-score, replicate 2 = 0.3. Against CG14346 the deposit lists z-score, replicate 1 = -0.2; z-score, replicate 2 = 0. After knock-down of Alp9, the record shows z-score, replicate 1 = -0.2; z-score, replicate 2 = -0.2. With knock-down of PolZ2 the results were z-score, replicate 1 = -0.3; z-score, replicate 2 = -0.5. CG13675 #1 gave z-score, replicate 1 = -0.2; z-score, replicate 2 = 0.8. With knock-down of CG13675 #2 the results were z-score, replicate 1 = 3.9; z-score, replicate 2 = 4.1.

Silencing of CG9377 came out at: z-score, replicate 1 = -0.3; z-score, replicate 2 = -0.3. CG14965 scored z-score, replicate 1 = -0.1; z-score, replicate 2 = -0.3. After knock-down of CG14658, the record shows z-score, replicate 1 = -0.1; z-score, replicate 2 = 0.2. After knock-down of ndl, the screen gave z-score, replicate 1 = -0.2; z-score, replicate 2 = -0.5. Silencing of bip1 resulted in: z-score, replicate 1 = -0.4; z-score, replicate 2 = -0.2. For CG34056 the deposit lists z-score, replicate 1 = -0.1; z-score, replicate 2 = -0.1.

Silencing of CNT1 came out at: z-score, replicate 1 = -0.2; z-score, replicate 2 = -0.3. After knock-down of CG17472 the results were z-score, replicate 1 = -0.2; z-score, replicate 2 = -0.4. Against Lasp the deposit lists z-score, replicate 1 = -0.3; z-score, replicate 2 = -0.7. CG34187 (retired record) gave z-score, replicate 1 = -0.1; z-score, replicate 2 = -0.1. With knock-down of Cln7, the record shows z-score, replicate 1 = -0.2; z-score, replicate 2 = -0.9. Silencing of Fpps came out at: z-score, replicate 1 = -0.2; z-score, replicate 2 = -0.1.

For h-cup + Rbp, the entry reads z-score, replicate 1 = -0.2; z-score, replicate 2 = -0.4. Against Ude, the entry reads z-score, replicate 1 = -0.3; z-score, replicate 2 = -0.4. Against CG3719, the entry reads z-score, replicate 1 = -0.4; z-score, replicate 2 = -0.4. After knock-down of SMC3, the record shows z-score, replicate 1 = 0.2; z-score, replicate 2 = 0.3. Knock-down of CG5381 resulted in: z-score, replicate 1 = 0.6; z-score, replicate 2 = 0.2. CG31777 gave z-score, replicate 1 = 0.4; z-score, replicate 2 = -0.3.

mnb #1 scored z-score, replicate 1 = 4.7; z-score, replicate 2 = 2.7. mnb #2 showed z-score, replicate 1 = 0.2; z-score, replicate 2 = 0.1.

7 entries from above, reformatted:
target gene	reagent	z-score, replicate 1	z-score, replicate 2
CG13675	2	3.9	4.1
CG9377	1	-0.3	-0.3
CG14965	1	-0.1	-0.3
CG14658	1	-0.1	0.2
ndl	1	-0.2	-0.5
bip1	1	-0.4	-0.2
CG34056	1	-0.1	-0.1

The list goes on:
RpS25 scored z-score, replicate 1 = 0.7; z-score, replicate 2 = 1.4. For Nlg2, the entry reads z-score, replicate 1 = -0.4; z-score, replicate 2 = -0.6. Nlg4 #1 scored z-score, replicate 1 = 0.4; z-score, replicate 2 = -0.1. Depletion of Nlg4 #2 gave: z-score, replicate 1 = 0.4; z-score, replicate 2 = -0.1. Silencing of Nlg4 #3 resulted in: z-score, replicate 1 = -0.1; z-score, replicate 2 = -0.1. After knock-down of Nlg4 #4, the record shows z-score, replicate 1 = 4; z-score, replicate 2 = -1.1.

pkaap scored z-score, replicate 1 = 0; z-score, replicate 2 = -0.2. Against His-Psi:CR31616 + His-Psi:CR31615 the deposit lists z-score, replicate 1 = 3.3; z-score, replicate 2 = 2.6. Against Alp5, the values are z-score, replicate 1 = -0.3; z-score, replicate 2 = -0.5. Against CG13999, the entry reads z-score, replicate 1 = -0.4; z-score, replicate 2 = -0.4. After knock-down of Pcmt the results were z-score, replicate 1 = -0.4; z-score, replicate 2 = 0.1. qsm #1 showed z-score, replicate 1 = -0.7; z-score, replicate 2 = -0.2.

For qsm #2, the entry reads z-score, replicate 1 = -0.3; z-score, replicate 2 = 0.1. Silencing of Mtmr6 resulted in: z-score, replicate 1 = -0.5; z-score, replicate 2 = -0.8. Against upd1 the deposit lists z-score, replicate 1 = -0.3; z-score, replicate 2 = -0.3. Knock-down of CG7120 resulted in: z-score, replicate 1 = -0.1; z-score, replicate 2 = -0.4. Against CG15472, the values are z-score, replicate 1 = -0.2; z-score, replicate 2 = -0.2. For CG10064 the deposit lists z-score, replicate 1 = 0; z-score, replicate 2 = -0.4.

With knock-down of dap the results were z-score, replicate 1 = -0.5; z-score, replicate 2 = -0.6.
